We go through 19 substances from paper PMC3570524.

The chains behind the UniProt entries cited, without tags or fusion partners. Where a name states a change or a piece, a line headed by the entry shows the natural chain unless it says otherwise.
UniProt G8JYD8: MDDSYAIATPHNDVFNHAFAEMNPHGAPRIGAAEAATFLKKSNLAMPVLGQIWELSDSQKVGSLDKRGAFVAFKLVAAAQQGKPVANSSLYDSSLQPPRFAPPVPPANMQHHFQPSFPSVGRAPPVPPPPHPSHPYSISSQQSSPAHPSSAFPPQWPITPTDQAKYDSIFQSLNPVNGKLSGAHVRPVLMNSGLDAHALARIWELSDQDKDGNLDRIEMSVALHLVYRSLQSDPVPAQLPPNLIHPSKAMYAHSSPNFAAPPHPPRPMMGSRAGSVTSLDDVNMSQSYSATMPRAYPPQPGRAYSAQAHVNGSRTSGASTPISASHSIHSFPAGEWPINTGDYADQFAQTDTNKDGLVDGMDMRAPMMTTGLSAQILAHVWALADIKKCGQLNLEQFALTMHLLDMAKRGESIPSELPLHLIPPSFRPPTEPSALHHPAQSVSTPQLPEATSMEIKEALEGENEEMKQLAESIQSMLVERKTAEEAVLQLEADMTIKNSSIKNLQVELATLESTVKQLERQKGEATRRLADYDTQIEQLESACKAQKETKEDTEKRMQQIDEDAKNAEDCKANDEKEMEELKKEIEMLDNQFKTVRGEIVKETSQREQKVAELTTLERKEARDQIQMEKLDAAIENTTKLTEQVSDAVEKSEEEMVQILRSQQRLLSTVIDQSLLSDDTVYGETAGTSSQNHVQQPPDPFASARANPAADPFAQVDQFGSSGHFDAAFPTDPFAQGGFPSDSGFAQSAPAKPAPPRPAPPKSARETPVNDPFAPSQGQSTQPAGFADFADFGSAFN
UniProt Q8MYM6: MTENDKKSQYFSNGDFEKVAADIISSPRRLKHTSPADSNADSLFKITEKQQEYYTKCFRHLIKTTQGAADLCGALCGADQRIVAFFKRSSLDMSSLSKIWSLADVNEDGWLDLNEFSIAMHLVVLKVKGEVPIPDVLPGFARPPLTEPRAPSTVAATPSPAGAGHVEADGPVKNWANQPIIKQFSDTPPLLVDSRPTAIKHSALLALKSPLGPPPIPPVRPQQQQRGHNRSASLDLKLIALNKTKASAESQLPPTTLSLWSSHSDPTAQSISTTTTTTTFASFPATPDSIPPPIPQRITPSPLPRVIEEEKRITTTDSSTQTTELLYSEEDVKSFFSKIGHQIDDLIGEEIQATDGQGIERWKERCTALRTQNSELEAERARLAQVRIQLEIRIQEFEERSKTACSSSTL

Results are given in words; binding and its absence hold for the method and conditions named. For part of these data: In cells and extracts the contact can be indirect. For part of these data: Binding can be weak; no strength is given. For part of these data: Tags and fused reporters may be left off the sequences shown.

One assay addresses T1, EH-domain bait of R10E11.6 (aa 55-360) (C. elegans) (UniProt P34550).
T1 sequence: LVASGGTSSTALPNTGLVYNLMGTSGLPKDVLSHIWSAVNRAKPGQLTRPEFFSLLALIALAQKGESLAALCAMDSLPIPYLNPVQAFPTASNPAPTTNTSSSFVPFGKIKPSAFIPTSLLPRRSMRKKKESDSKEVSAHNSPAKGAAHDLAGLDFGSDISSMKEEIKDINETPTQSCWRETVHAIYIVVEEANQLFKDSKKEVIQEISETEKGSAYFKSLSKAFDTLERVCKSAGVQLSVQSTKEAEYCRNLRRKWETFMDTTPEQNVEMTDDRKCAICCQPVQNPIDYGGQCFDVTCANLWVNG
Nature of the assay: two-hybrid; ProQuest system, yeast MaV203; EH-domain baits in pDBLeu, C. elegans cDNA library or re-transformed inserts in pPC86; growth in selective media (3-AT) and LacZ expression.
On to PQN-32 (two-hybrid prey) (C. elegans), for which the binding entry is given as “no binding”.
The same measure, in the same setting: under T05F1.4 (two-hybrid prey) (C. elegans) stands “no binding”.
On to TAG-208 (two-hybrid prey) (C. elegans), for which the binding result is “no binding”.
Regarding DAB-1 (two-hybrid prey) (C. elegans), the binding entry is on record as “no binding”.
As to M03A8.3 (two-hybrid prey) (C. elegans), the binding result is listed as “no binding”.
On the same count and under the same terms, for T23G11.7 (two-hybrid prey) (C. elegans) the value was “no binding”; for AIN-2 (two-hybrid prey) (C. elegans), “no binding”; for K04H4.2 (two-hybrid prey) (C. elegans), “no binding”.
For the substance Y37E3.11 (two-hybrid prey) (C. elegans), the binding result is given as “no binding”.
On the same count and under the same terms, for CAS-1 (two-hybrid prey) (C. elegans) the value was “no binding”; for “BE0003N10.3 (two-hybrid prey) (C. elegans)”, “no binding”; for EPN-1 (two-hybrid prey) (C. elegans), “no binding”.
Consider T05E7.5 (two-hybrid prey) (C. elegans), for which the binding entry is listed as “no binding”.
Still for that read-out and setting: under D1081.7 (two-hybrid prey) (C. elegans) stands “no binding”; under VAB-19 (two-hybrid prey) (C. elegans), “no binding”; under F46H5.7 (two-hybrid prey) (C. elegans), “no binding”.

The next assay has as its target T2, GST-BATH-42 (C. elegans) (UniProt P34371).
T2 sequence: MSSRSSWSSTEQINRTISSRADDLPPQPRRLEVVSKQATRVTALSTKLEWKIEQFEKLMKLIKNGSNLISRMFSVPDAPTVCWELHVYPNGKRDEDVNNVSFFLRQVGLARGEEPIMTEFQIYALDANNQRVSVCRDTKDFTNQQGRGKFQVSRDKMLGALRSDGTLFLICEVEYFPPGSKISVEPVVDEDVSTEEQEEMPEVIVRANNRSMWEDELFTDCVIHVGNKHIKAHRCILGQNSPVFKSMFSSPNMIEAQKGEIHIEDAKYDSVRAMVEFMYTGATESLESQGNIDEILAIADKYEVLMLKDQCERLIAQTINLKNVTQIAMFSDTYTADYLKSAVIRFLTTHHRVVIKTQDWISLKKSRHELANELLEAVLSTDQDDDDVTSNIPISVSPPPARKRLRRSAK
Kind of assay: pull-down; 10 µg of GST protein on Glutathione Sepharose beads incubated 2 hours with Phoenix cell lysate holding the FLAG-tagged EH protein; JS buffer (Hepes 50 mM pH 7.4, NaCl 150 mM, Triton X100 1%); anti-FLAG immunoblot; only the target purified. On the technique in general: Immunoblotting shows a protein as a band on a membrane.
As for “FLAG-tagged full-length EHS-1 (aa 1-796) (from UniProt G8JYD8)”, the binding result is “no binding (tested: 10 µg of GST protein)”.

In the next assay the target is T3, GST-FLH-1 (C. elegans) (UniProt Q9XWR1).
T3 sequence: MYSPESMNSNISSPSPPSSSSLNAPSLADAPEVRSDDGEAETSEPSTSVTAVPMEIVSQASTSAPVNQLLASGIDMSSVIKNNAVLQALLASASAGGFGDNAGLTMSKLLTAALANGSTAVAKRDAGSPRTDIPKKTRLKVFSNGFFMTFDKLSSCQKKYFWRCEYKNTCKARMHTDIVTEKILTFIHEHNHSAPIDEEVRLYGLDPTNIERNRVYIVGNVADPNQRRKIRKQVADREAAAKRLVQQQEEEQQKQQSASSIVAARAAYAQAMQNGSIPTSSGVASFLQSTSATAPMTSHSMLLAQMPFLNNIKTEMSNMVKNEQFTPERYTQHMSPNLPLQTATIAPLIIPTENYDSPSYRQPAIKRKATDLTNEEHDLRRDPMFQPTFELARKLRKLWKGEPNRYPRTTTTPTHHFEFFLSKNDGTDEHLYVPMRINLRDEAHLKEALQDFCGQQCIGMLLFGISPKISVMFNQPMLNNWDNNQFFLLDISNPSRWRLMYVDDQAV
Described as above.
For the substance “FLAG-tagged full-length REPS-1 (aa 1-410) (from UniProt Q8MYM6)”, the binding result is given as “binds”.
Turning to “FLAG-tagged full-length ITSN-1 (aa 1-1085) (C. elegans)”, the binding entry is “no binding (tested: 10 µg of GST protein)”.
As for “FLAG-tagged full-length EHS-1 (aa 1-796) (from UniProt G8JYD8)”, the binding result was “binds”.

In another assay the target is T4, GST-SEL-5 (C. elegans) (UniProt G5ECQ3).
T4 sequence: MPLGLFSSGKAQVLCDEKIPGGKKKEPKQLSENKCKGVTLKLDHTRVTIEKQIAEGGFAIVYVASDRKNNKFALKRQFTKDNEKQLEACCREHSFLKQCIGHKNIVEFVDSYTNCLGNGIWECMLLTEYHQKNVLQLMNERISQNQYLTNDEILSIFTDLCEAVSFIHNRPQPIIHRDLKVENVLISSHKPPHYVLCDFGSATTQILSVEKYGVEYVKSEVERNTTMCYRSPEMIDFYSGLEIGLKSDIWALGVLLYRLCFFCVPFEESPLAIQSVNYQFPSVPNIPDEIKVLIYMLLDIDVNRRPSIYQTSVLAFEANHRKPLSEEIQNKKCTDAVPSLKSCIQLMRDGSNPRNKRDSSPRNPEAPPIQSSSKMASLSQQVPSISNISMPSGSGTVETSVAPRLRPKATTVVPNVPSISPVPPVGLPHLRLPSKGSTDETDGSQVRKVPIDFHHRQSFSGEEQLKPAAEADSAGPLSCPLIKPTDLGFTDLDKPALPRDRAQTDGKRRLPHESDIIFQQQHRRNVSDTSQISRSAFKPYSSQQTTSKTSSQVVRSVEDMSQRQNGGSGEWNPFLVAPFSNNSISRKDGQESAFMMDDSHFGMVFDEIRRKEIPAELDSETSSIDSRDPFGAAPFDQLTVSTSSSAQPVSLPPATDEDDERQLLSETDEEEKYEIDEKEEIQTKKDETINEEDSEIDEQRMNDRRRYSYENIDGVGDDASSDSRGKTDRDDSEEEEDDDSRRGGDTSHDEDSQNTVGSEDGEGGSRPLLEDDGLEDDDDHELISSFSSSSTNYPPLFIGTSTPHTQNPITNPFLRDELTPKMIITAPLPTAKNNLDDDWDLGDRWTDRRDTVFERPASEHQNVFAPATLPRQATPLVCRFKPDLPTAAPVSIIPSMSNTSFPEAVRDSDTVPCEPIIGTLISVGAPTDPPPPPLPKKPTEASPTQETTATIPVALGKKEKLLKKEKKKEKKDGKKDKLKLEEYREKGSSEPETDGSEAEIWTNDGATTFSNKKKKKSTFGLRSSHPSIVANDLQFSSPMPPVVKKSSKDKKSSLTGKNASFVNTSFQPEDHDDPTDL
The assay is described as above.
Regarding “FLAG-tagged full-length REPS-1 (aa 1-410) (from UniProt Q8MYM6)”, the binding entry is reported as “binds”.
